Reference: patent US20050148553A1, “Use of tigecycline, alone, or in combination with rifampin to treat osteomyelitis and/or septic arthritis” (priority 2003, published 2005)
At least one compound was matched to its structure with a doubt left.

Tested on: M. abcessus
Test: Susceptibility/MIC of patient isolate, compassionate use study
Type: cell-based, Mycobacterium abscessus
Details: M. abscessus patient isolate

COc1c(N2C[C@@H]3CCCN[C@@H]3C2)c(F)cc2c(=O)c(C(=O)O)cn(C3CC3)c12 [moxifloxacin, reference compound]
susceptibility of the organism: resistant
